# Test results reported in PubChem BioAssay AID1347426 (Functional Genomics Laboratory (NCATS/FGL), 2020).
# Among all 31,000 sequences or so, about 1,400 (4.5%) were called active.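 Rule for the calls: active = median seed-adjusted z-score above 1 or below -1; inactive = the rest.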 Some of the results follow.
# Experiment: Novel Modifiers of Survival Motor Neuron (SMN) Protein: Gene Identification via Genome-wide siRNA Screen;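 note: luminescence tracks full-length SMN protein made from the SMN2 reporter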
# Conditions: HEK293T SMN2-luciferase reporter, siRNA knockdown, 72 h; actives lie on both sides
# How it was run: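 siRNA screen, 10418 genes ×3 siRNAs; 1 pmol/well, lipid reverse transfection into HEK293T SMN2-luc reporter line. 72 h, 37 °C, 5% CO2; ONE-Glo readout. Data: neg-ctrl normalized, log10, MAD; hit = MAD >1.0 or < -1.0.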
row,Sequence,median seed-adjusted z-score
1,GACCUACUACAUAGAAUUATT against RABL3,inactive: 0.843
2,GUCUCAUUCCAACCUUAUATT against PIGN,inactive: 0.215
3,GCUGACAAAUCAACACGUATT against ANKZF1,inactive: 0.176
4,AGGGACCGGUUCAUCGAAATT against CSDA,inactive: 0
5,CAAUGAUGGUUGAUCUACATT against RANBP6,inactive: -0.696
6,GCACUCACCUUGUAGUUGATT against ECT2,inactive: 0.04
7,GCCCUUAUCAUAAAUGCUUTT against DCTN6,inactive: 0.211
8,GAUUGCUAUUAGUCCCAAATT against RBKS,inactive: 0.229
9,GACCCACAAAUAUACCAUUTT against SMAP1,inactive: -0.201
10,AGACGAUUGGUAGCACCUATT against ADCY6,inactive: -0.0652
11,GAAGAUCGCCGUCAAGAUGTT against EDA,inactive: 0.316
12,GCCUUGUCAAUGUUAGUCATT against NPHP3,inactive: 0.239
13,AGAGGUCCACCCUUCUUUATT against SEBOX,inactive: 0.2
14,AGAACUUCUCGUCACUGUATT against RALGDS,inactive: -0.235
15,GAACAUUAACCUGCGAGAATT against LSM4,inactive: -0.679
16,UUAUAGAACUCACACUCAATT against ZIM2,inactive: -0.565
17,CAACGGCAACGGAGAGGAUTT against SLC24A6,inactive: -0.792
18,CAGAAAGAGCAGUACUUUUTT against MYF5,inactive: -0.786
19,GAUGUUCUGUUAGAGCUGATT against PCGF1,inactive: 0.508
20,GCAUCAUCUGUAACAAGAUTT against WNT7A,inactive: 0.0931
21,GGAUAGAGAUUCCAAAUAUTT against RXFP2,inactive: 0.511
22,UGACGCAGGUAGAACGUAATT against PINX1,inactive: 0.11

# 4 entries from above, set out differently:
row	Sequence	median seed-adjusted z-score
3	GCUGACAAAUCAACACGUATT against ANKZF1	inactive: 0.176
4	AGGGACCGGUUCAUCGAAATT against CSDA	inactive: 0
5	CAAUGAUGGUUGAUCUACATT against RANBP6	inactive: -0.696
6	GCACUCACCUUGUAGUUGATT against ECT2	inactive: 0.04

# Next part

row,Sequence,median seed-adjusted z-score
1,ACUGCACGGUGGUUCAGUATT against SLC27A1,inactive: 0.253
2,GGAAGGACAUUGUCGUUAUTT against KLKBL4,inactive: -0.0132
3,CCUUCCCGCCCAUCUCUUATT against MVD,inactive: -0.561
4,GCAACUAAUAAGACCAAGATT against SWAP70,inactive: -0.704
5,GCCCUGUAAGCACGAGUUUTT against RNF215,inactive: -0.889
6,CUAAAUCUUUUGCAGUUUATT against PLEKHF2,inactive: 0.0967
7,GAUCCUCUAGUAAAGGGAATT against GNG11,inactive: 0.00609
8,GGGAUGGACAUAAACGAAUTT against TUBB1,inactive: -0.289
9,CAGUGUGAAUGGGACAUCATT against EPHA8,inactive: 0.217
10,GCUUCUGUCUCGGUACCGATT against PKLR,inactive: 0.587
11,CCAACAUCUGGAACGAAUATT against KCNT2,inactive: 0.449
12,CGAUUUCUGCAAACGGAGATT against HSPD1,inactive: -0.146
13,GGCUUUAUGAAAAUCGAAATT against MMP21,inactive: -0.185
14,UGAAAGGACUUGUCUGAAATT against CHST6,inactive: 0.372
15,ACAUCAAGAAUGACCCGGATT against EXOC7,inactive: -0.231
16,GUAAGGUCUUUAGUCGAAATT against ZNF347,inactive: 0
17,GCUACAAGCUUGACAAGCATT against EIF3B,inactive: -0.71
18,CCUUAUGAGUUCUCACGGATT against TG,inactive: 0.0137
19,GAAGCAGGAUGAACUGAAATT against ATP5I,inactive: -0.871
20,GGAAGAGAGCUAUUCGUCUTT against GMEB1,inactive: 0.198
21,GGAUUAAAGAGAAGAUCUATT against ERH,active: -1.25
22,GCCCUGUGAGUACCUCUUUTT against LGR6,inactive: 0.237

row,Sequence,median seed-adjusted z-score
1,CAGUGUAGUUGUUCGAGAUTT against KPNB1,inactive: 0.165
2,GCUAUUACCUCAUCAUGCUTT against FA2H,inactive: 0.0497
3,GAAUGGUGUGGAUCUCCUATT against ARPC5,inactive: -0.479
4,GGGCUUAGGUGUGAUCAUUTT against USH2A,inactive: 0.0673
5,GCUGAGGAGUCAGUGCAUGTT against TNFRSF18,inactive: 0.154
6,CCUUCUUUCCGGACAAUUUTT against VIPR1,inactive: 0.168
7,CCUGCAGAGAUGUACUGAATT against RDH12,inactive: -0.0267
8,GGUGGGACACCGAGACAUATT against CABP1,inactive: -0.192
9,CCAGACUGAUGAGAACAAUTT against GOLGA2L1,inactive: 0.487
10,CUCCUGUCGUUAGACCUAATT against MDM4,inactive: 0.0554
11,UGAAGUUCCUGAAUAACCATT against NR5A1,inactive: -0.467
12,GAAGUAUUCUCCGAUUUUATT against UBE4B,inactive: -0.0364
13,CAUUGUUAAUGCUACCAUUTT against DUSP14,inactive: 0.0654
14,GCCUGAUUCUGAGUGAUGATT against SPTLC2,inactive: 0
15,GCACAGCCCUGCUCAACAATT against ZFP36L2,inactive: -0.0485
16,GACUCUAACCUGGAUCGAATT against NID1,inactive: 0.761
17,CCUCCAAGGAUGAAUGUAATT against BOC,inactive: -0.0192
18,CAAAGGAUAAGAAAGAAAATT against METTL1,inactive: 0.0494
19,GCUCUAACCUCACUAAUCATT against ZNF256,inactive: 0.00739
20,CAGCAUAGGUGGUUUGUGATT against GPR62,inactive: 0.0306
21,GGAGUAGACUCAACAGUUUTT against GMPS,inactive: -0.485
22,GAAGAAAUACCGUCAUUUUTT against PLD2,inactive: -0.743

# A section from further up, as a working copy:
row,Sequence,median seed-adjusted z-score
14,GCCUGAUUCUGAGUGAUGATT against SPTLC2,inactive: 0
15,GCACAGCCCUGCUCAACAATT against ZFP36L2,inactive: -0.0485
16,GACUCUAACCUGGAUCGAATT against NID1,inactive: 0.761
17,CCUCCAAGGAUGAAUGUAATT against BOC,inactive: -0.0192

# Further results.

row,Sequence,median seed-adjusted z-score
1,GGAUGAGAACAUUAAAACATT against COQ3,inactive: 0.426
2,GAUAAUUCCAUGACAUUAUTT against CYP39A1,inactive: 0.196
3,GGAUGAUCGCGGAUGGAUUTT against SLC4A8,inactive: -0.474
4,CGGGAGAAGUUAGCACUCUTT against SSBP2,inactive: 0
5,CAACGGGACUAUUAUGAUATT against HNRNPC,active: -2.15
6,CAAUCAGCACAAUGGUUCATT against ARAP2,inactive: 0.388
7,CAAUAGUAAAGGGAUAUAATT against MED27,active: -1.62
8,GGCUCAAUCCGGAGAAAGATT against SLC12A5,inactive: -0.22
9,GCUUCAAGCACAAAGGAAATT against DDX56,inactive: 0.904
10,CGUGUCCUGUCUGAACCAATT against ESCO2,inactive: 0
11,CAGUCAAGCUUGGAGUUAATT against SYTL3,inactive: 0.236
12,CAAGCGACUUUAUAGCCUUTT against PRKDC,inactive: -0.485
13,GCAACUUCAUUUCUCAUCUTT against CA6,inactive: 0.349
14,GGAUAUGCCUGAGUAUGAATT against SEC23A,inactive: 0.131
15,CUGUAUUAGUAGCAGUUGATT against ATP7A,inactive: 0
16,GGAGAUACCCUCAAGUAUATT against LRRTM3,inactive: -0.0808
17,CACCAGCUACCAAUAAAAATT against FOXK2,inactive: -0.348
18,GCAGAGCCCUCAGCAAAUATT against TCOF1,inactive: 0.819
19,GUCAUUCACCAAAAACUUUTT against ZNF341,inactive: 0.356
20,AGAGAACUCUGGAACCCGUTT against HTRA2,inactive: -0.503
21,GACCUUUCCGAAUUCAGGATT against PPM1F,inactive: -0.231
22,CAGUAGCAGUAAUACUAGATT against DDHD2,inactive: 0.447

row,Sequence,median seed-adjusted z-score
1,GGGUUUAGGUGACUGUAUUTT against SLC25A31,inactive: -0.615
2,GGAAUUUAAGUGAUAGUGATT against CPEB2,inactive: -0.00928
3,CCAGCAUCAUCUUCGCAGATT against NUP210,inactive: 0.0904
4,AGAAUGUGGUUGUCCUGAATT against ACCS,inactive: -0.49
5,CCAGCUGUCUCAUGCCUUUTT against PLEKHF1,inactive: 0.055
6,GGUGAAACUUCUCUACAAATT against ZNF517,inactive: 0.0158
7,GAGAGGAAAUUACCACGAATT against ADAMDEC1,inactive: 0.0106
8,CUGUAUUCACGGCAAAUGATT against ACTR5,inactive: -0.376
9,GGUGAUACCCAGAAAACCATT against HS1BP3,inactive: 0.418
10,GGAGGAGUCUGACCCUGUATT against SIGLEC7,inactive: -0.296
11,CUGUGACCAUAAUAACUGUTT against ZNF239,inactive: -0.191
12,CGUGCAAGGUUGUGCGAUATT against GPR19,inactive: 0.157
13,GAAUGACAAUAACUUUGUUTT against TFPI2,inactive: 0.519
14,GCAAAGGCCUUGUACGUCATT against USP10,inactive: 0.182
15,GGACUGUCAAUCUUAGAUATT against GRK4,inactive: -0.267
16,GAAACUUCCUUUUACCAUCTT against ERN1,inactive: 0.684
17,UGAAGAACUUUGCACUGCATT against MGAT4B,inactive: 0.0142
18,GGAGCAACAUUAUAGUCAATT against TGS1,inactive: -0.564
19,GGACUUUCGGGAACGAGAATT against PFKM,inactive: -0.362
